Source: US20130058935A1 (INSTITUTE FOR CANCER RESEARCH, published 2013)
No constants are given. Whether binding was seen depends on the method and setting. Some entries that bind do so weakly or less than the wild type.

Target: T1, mTEM7R on live cells (target antigen of scFv#4 in live cell binding assays) (mouse) (UniProt Q9DC11)
T1 sequence (looked up): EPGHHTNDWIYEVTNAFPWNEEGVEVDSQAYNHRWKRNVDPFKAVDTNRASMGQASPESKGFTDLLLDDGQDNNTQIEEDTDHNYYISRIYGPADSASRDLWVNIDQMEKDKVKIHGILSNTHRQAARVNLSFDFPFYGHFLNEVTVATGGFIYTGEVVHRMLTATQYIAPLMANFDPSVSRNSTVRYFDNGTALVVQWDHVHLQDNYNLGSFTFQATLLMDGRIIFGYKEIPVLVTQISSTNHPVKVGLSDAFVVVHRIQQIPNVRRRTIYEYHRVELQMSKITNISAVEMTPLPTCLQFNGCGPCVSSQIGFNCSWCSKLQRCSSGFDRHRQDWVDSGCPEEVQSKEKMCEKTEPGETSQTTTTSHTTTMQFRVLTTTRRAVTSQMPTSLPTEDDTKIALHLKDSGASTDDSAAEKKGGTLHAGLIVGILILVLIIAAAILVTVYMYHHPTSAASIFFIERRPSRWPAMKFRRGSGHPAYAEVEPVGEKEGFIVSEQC
Assay: live cell binding assay with radioiodinated scFv

B1: anti-mTEM7R scFv#4 (scFv)
scFv: MAQVQLVESGGGLVQPGGSLRLSCAASGFTFSSYEMNWVRQAPGKGLEWVSYISSSGSTIYYADSVKGRFTISRDNSKNTLYLQMNSLRAEDTAVYYCASGDYMDVWGQGTTVTVSSSASGAELGGGGSGGGGSGGGGSTSDIQLTQSPSSLSASVGDRVTITCQASQDISNYLNWYQQKPGKAPKLLMYDASNLETGVPSRFSGSGSGTDFTFTISSLQPEDFATYYCQQSDNLPYTFGQGTKVDIKRS
notes: Human scFv from a naive phage library, expressed in E. coli TG1 (pUC119mycHis / pSYN2) and purified by Ni-NTA, so it carries a His tag; also called clone 4; anti-TEM7R scFv
B1 was tested, and the binding was “binds”.
